# Values of other authors in patent US20260007780A1, “LIQUID VEHICLE FORMULATION FOR ENTEROGRAPHY EXAMINATION” (priority 2008, published 2026).
# Some results were stated once for a whole list of compounds, not compound by compound.
# Conditions: in normal patients
smiles,measurement,value
CC(=O)N(CC(O)CO)c1c(I)c(C(=O)NCC(O)CO)c(I)c(C(=O)NCC(O)CO)c1I (stereo not shown) [iohexol],absorbed from the gastrointestinal tract,less than 2%
